# Library screening results

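Viability assay of Plasmodium falciparum sporozoites; the read-out is not stated. The concentration is filed as 10 mM, unlikely as a test dose, so the dose is not known. The record gives no direction; compounds that gave an IC50 in retests scored well above the rest, so higher reads as lower viability. Strong results were mostly tested again. About 34,000 compounds were tested under these conditions; 0.84% (about 280) showed 50% or more at least once.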

Values are the deposited “Percent Effect”, in %.
The record does not define 0% and 100%; most values in the screen are far below 50% and negative numbers occur (in some assays of this library far below -100).
Compounds were drawn at random from those tested, without regard to their results.
Two or more numbers in one place are separate tests of the same structure; such repeats can differ widely.

compound,percent effect
O=S(=O)(CCCN1CCCC(Cn2cncn2)C1)c1ccccc1 (stereo not drawn),-6.55%
COCC(=O)N1CCC(c2csc(NC(C)=O)n2)CC1,-7.697%
CCn1c(CC2CCN(S(=O)(=O)Cc3ccccc3)CC2)nn(C)c1=O,-11.23%
Cn1cc(-c2nnn3c2COC(CNCc2ccncc2)C3)cn1 (stereo not drawn),-13.99%
Cc1ccsc1CNC(=O)NC(C)c1ccc2c(c1)CCC(=O)N2 (stereo not drawn),-4.807%
Cc1cccc(CN2CCC(N(C)Cc3nnc(C4CC4)n3C)C2)c1 (stereo not drawn),7.04%
CCc1cccc(N2CCC(NC(=O)C3CCOCC3)CC2)c1,2.221%
Cc1cnc(CN2CCOC(CNc3cccnn3)C2)cn1 (stereo not drawn),-13.08%
O=C(NCc1nnc2n1CCC2)c1cn(-c2cccc(Br)c2)nn1,-0.08651%
Cc1ncsc1C(=O)NCc1ccc(-c2n[nH]cc2C(=O)N(C)C)cc1,-3.108%
O=C(NCCN1CCCCC1)c1nc2ccccc2c(=O)[nH]1,2.193%
COc1ccnc(N2CCN(C(=O)CN3CCCC3=O)CC2)n1,23.88%
O=C1NC2(CCN(CC(=O)N3CCOCC3)CC2)Nc2ccc(Br)cc21,-4.126%
Cc1cc(C)cc(CN2CCN(Cc3ccc4nonc4c3)CC2=O)c1,-7.105%
CN(C)Cc1cnn(-c2ccccc2C(=O)NCCC2CCCN2C)c1 (stereo not drawn),0.385%
Cc1occc1-c1nc(NC2CCCC2)ncc1-c1ccccn1,10.53%
O=C(O)C(F)(F)F.O=C(O)C(F)(F)F.[H][C@@]12C[C@@H](Oc3ccc(C)cc3)CN1CCN(c1ncc(F)cn1)C2,-9.161%
COc1ccc2c(c1)CC(C1CCOCC1)N(C(=O)c1ccn(C)n1)C2 (stereo not drawn),-4.403%
CCn1ccnc1CN1CCCN(C(=O)COC2CCCCC2)CC1,2.221%
CCN(CC)C1CCN(C(=O)NCc2c(C)noc2C)CC1,-6.642%
Cc1ccn(CCC(=O)NC(C)Cc2ccco2)n1 (stereo not drawn),3.671%
Cc1cc(C2CCCN2C(=O)NCc2cccc(F)c2)on1 (stereo not drawn),-0.8584%
Cc1nn(C)c(N(C)C)c1CNCC(O)COc1ccccc1.Cl (stereo not drawn),-6.021%
CNc1ccc(C2CN(c3nc(C)cc(C)n3)CCO2)nc1 (stereo not drawn),3.529%
CS(=O)(=O)N1CCC(c2nnc3ccc(C(=O)NC4CCC4)cn23)C1 (stereo not drawn),-9.53%
COC(=O)c1cc(OCC2CCC2)cc(C(=O)N[C@H]2CC[C@H](O)CC2)c1,0.8264%
Cc1cc(C)c2c(NCCC3(O)CCCC3)ncnc2n1,-8.462%
COCCN1CCc2cc(C(=O)NCC3CC3)c(NC(C)C)nc2CC1.O=C(O)C(F)(F)F.O=C(O)C(F)(F)F,6.818%
Cc1ccccc1CN1CCN(C(C)c2nc(C3CC3)no2)CC1 (stereo not drawn),-1.013%
CCc1nnc(CSc2ccccn2)o1,-1.443%
Cn1cc(-c2cnc3n2CCC32CCN(S(=O)(=O)C3CC3)CC2)cn1.O=C(O)C(F)(F)F,-1.599%
Cn1cnnc1SCc1cc2c(cc1Br)OCO2,-0.2747%
CC(C)c1cc(C(F)(F)F)n2nc(C3CCN(S(C)(=O)=O)C3)cc2n1 (stereo not drawn),4.108% and 12.06% and 6.969%
O=C(O)C(F)(F)F.O=C(O)C(F)(F)F.[H][C@@]12CN(Cc3ccoc3)CCO[C@]1([H])CN(Cc1cnn(C)c1)C2,-1.899%
CCc1cc(C(=O)N2CCCC(c3[nH]ncc3S(C)(=O)=O)C2)no1 (stereo not drawn),-2.51%
[H][C@]12C[C@@H](Cn3cccn3)N(C)[C@@]1([H])CCN(C(=O)Cc1cccs1)C2,9.581%
CC(C)n1cc(CN2CCCN(C(=O)CN3CCCC3=O)CC2)cn1,-3.748%
O=C(CNc1nc(C2CC2)ns1)N1CCc2sccc2C1,-3.842%
O=C(O)C(F)(F)F.O=C(O)C(F)(F)F.[H][C@@]12CCN(CCN3CCCCC3)C[C@]1(C(=O)N1CCOCC1)CCO2,-3.947%
Cc1cccc(NC2CCN(C(=O)Nc3cc(F)cc(F)c3)CC2)n1,-0.7988% and 3.277% and 6.003%
CC(NC(=O)CSCC#N)c1cccc(Cl)c1 (stereo not drawn),1.885%
Cc1cc(C)c2nc(C)c(C(=O)N3CCC(N4CCCC4)CC3)cc2c1,0.518%
CN(C)C(=O)CN1CC[C@]2(CN(CC3CC3)C[C@H]2c2ccccc2)C1=O.O=C(O)C(F)(F)F,2.654%
CS(=O)(=O)c1cn[nH]c1C1CCCN(C(=O)CN2CCOCC2)C1 (stereo not drawn),12.31%
OCCN1CCCC(c2nccnc2Oc2ccccc2)C1 (stereo not drawn),-3.826%
Cc1ccccc1C(C#N)NC(=O)c1cccc2c1OCCO2 (stereo not drawn),2.957%
Cn1cnc2c1CCN(Cc1csc(-c3ccccc3)n1)C2,12.93% and 0.02413% and 4.783%
COCCNc1ccc(CC2CCCN(c3ncccn3)C2)nn1 (stereo not drawn),6.416%
CC(NC(=O)NCCCc1n[nH]c(N)c1C#N)c1ccc(F)cc1 (stereo not drawn),16.46%
CN(C)S(=O)(=O)N1CCCC(C)(c2ncc(C(N)=O)s2)C1 (stereo not drawn),9.554%
Cc1cnn(CC2CCCN2Cc2cn3ccsc3n2)c1 (stereo not drawn),-3.81%
CCc1cnc(CN(C(C)=O)C2CCN(CCN3CCCCC3)C2)o1 (stereo not drawn),6.043%
CC(C)(C)n1ncc2c1CCCC2NCc1ccc2ncccc2c1 (stereo not drawn),67.83% and 75.52%
CC(C)(C)c1cc(CN2CCOCC(O)C2)n[nH]1 (stereo not drawn),-10.01%
[H][C@@]12CCCO[C@]1([H])[C@@H](NC(=O)c1nccn1C)CN2Cc1ccc(C)o1,5.604%
CCC(C)(C)NC(=O)c1ccc(NC(=O)NCc2cc(C)no2)cc1,-9.33%
CCC(=O)NC(Cc1cc(N(C)C)nc(C2CC2)n1)c1ccccc1 (stereo not drawn),2.854%
O=C(O)C1CN(c2cncc(Cc3ccccc3F)n2)C1,18.34%
Cc1ccc(C(=O)Nc2ccccc2N2CCCC2)n1C,5.586%
c1ccc(C(OCCNC2CCc3ncnn3C2)c2ccccc2)cc1 (stereo not drawn),-4.8%
COc1ccc(C(CO)NC(=O)Nc2cccc(C(C)=O)c2)cc1 (stereo not drawn),15.43% and 22.65%
CCC(=O)Nc1ccc(C(C)NC(=O)COCCOC)cc1 (stereo not drawn),-1.917%
O=C(O)C(F)(F)F.O=C(O)C(F)(F)F.O=C(O)C(F)(F)F.[H][C@@]12OCCN(Cc3ccncc3)[C@@]1([H])CC[C@H]2OCCN1CCCC1,1.855%
c1coc(-c2noc(CN3CCCCC3Cn3cncn3)n2)c1 (stereo not drawn),-177.5%
CO[C@H]1CN(Cc2ccc(F)c(F)c2)C[C@@]12CCCO2,-2.51%
O=C(CN1CCc2ccccc21)Nc1ccc(OC(F)F)cc1,-14.56%
Cc1cc(C)cc(C2(C(=O)NC(C)Cn3ccnc3)CC2)c1 (stereo not drawn),1.234%
Cc1ccnc(NC(=O)c2[nH]nc(C(C)C)c2Br)c1,109% and 104.4% and 105.9%
O=C(CCc1nccs1)N1CCN(c2ccccn2)CC1,-0.1701%
CNC(=O)c1cc(S(=O)(=O)C(C)C)cs1,-0.5114%
c1cnn(CC2CCCN2Cc2cn3ccsc3n2)c1 (stereo not drawn),-0.2279%
CC(C)c1cc(N2CCC(N(C)C)C2)n2nccc2n1 (stereo not drawn),11.14%
CCN(CC)S(=O)(=O)c1cc2c3c(c1)c(C)cc(=O)n3CCC2,15.01%
Cc1nc(C)n(CC2CCCN2Cc2cc(-c3cccs3)on2)n1 (stereo not drawn),15.19%
CCc1nnc2n1CCN(Cc1csc(-c3cnn(C)c3)n1)C2,-12.54%
Cc1nnsc1C(=O)N1CCCC(c2nccn2Cc2cscn2)C1 (stereo not drawn),-11.84%

Some entries from above, unchanged:

| compound | percent effect |
|---|---|
| `COc1ccnc(N2CCN(C(=O)CN3CCCC3=O)CC2)n1` | 23.88% |
| `Cc1cc(C)cc(C2(C(=O)NC(C)Cn3ccnc3)CC2)c1` (stereo not drawn) | 1.234% |
| `CCN(CC)S(=O)(=O)c1cc2c3c(c1)c(C)cc(=O)n3CCC2` | 15.01% |
| `Cn1cc(-c2cnc3n2CCC32CCN(S(=O)(=O)C3CC3)CC2)cn1.O=C(O)C(F)(F)F` | -1.599% |
| `CCc1cnc(CN(C(C)=O)C2CCN(CCN3CCCCC3)C2)o1` (stereo not drawn) | 6.043% |
| `Cc1ncsc1C(=O)NCc1ccc(-c2n[nH]cc2C(=O)N(C)C)cc1` | -3.108% |
| `CC(NC(=O)CSCC#N)c1cccc(Cl)c1` (stereo not drawn) | 1.885% |

From ChEMBL document CHEMBL3988442, “University of Dundee, Small-Polar-MMV Screening Library” (2021).